Assay results as given in the supplement of paper PMC11546906.
Where a name gives a salt, the structure may show the parent alone. Some of the results follow. Repeats in this data set agree poorly, so a single value says little.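 A screen tested FDA-approved drugs combined with one-eighth-MIC colistin against a clinical mcr-1-positive, multidrug-resistant E. coli isolate, measuring OD600 at 24 h. Controls were untreated bacteria (growth) and broth alone (blank). An OD600 under 0.2 marked a combination as active.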

What follows are compounds tested on Escherichia coli 42 (mcr-1-positive clinical isolate) (assay: OD600 after 24 h growth with compound plus colistin (absorbance units (OD600)); higher = more bacterial growth (less inhibition)). Settings: first compound 25 µM; colistin concentration 0.5 ug/mL; incubation time 24 h; 37 °C.

OD600, inactive:
CC1(C)S[C@@H]2[C@H](NC(=O)[C@H](N)c3ccc(O)cc3)C(=O)N2[C@H]1C(=O)O [Amoxicillin trihydrate] + CCC(C)CCCC(=O)N[C@@H](CCN)C(=O)N[C@H](C(=O)N[C@@H](CCN)C(=O)N[C@H]1CCNC(=O)[C@H]([C@@H](C)O)NC(=O)[C@H](CCN)NC(=O)[C@H](CCN)NC(=O)[C@H](CC(C)C)NC(=O)[C@@H](CC(C)C)NC(=O)[C@H](CCN)NC1=O)[C@@H](C)O [colistin] 1.07
CCc1cccc2c3c([nH]c12)C(CC)(CC(=O)O)OCC3 (centres undefined) [Etodolac] + CCC(C)CCCC(=O)N[C@@H](CCN)C(=O)N[C@H](C(=O)N[C@@H](CCN)C(=O)N[C@H]1CCNC(=O)[C@H]([C@@H](C)O)NC(=O)[C@H](CCN)NC(=O)[C@H](CCN)NC(=O)[C@H](CC(C)C)NC(=O)[C@@H](CC(C)C)NC(=O)[C@H](CCN)NC1=O)[C@@H](C)O [colistin] 1
Cn1c(=O)c2nc[nH]c2n(C)c1=O [Theophylline] + CCC(C)CCCC(=O)N[C@@H](CCN)C(=O)N[C@H](C(=O)N[C@@H](CCN)C(=O)N[C@H]1CCNC(=O)[C@H]([C@@H](C)O)NC(=O)[C@H](CCN)NC(=O)[C@H](CCN)NC(=O)[C@H](CC(C)C)NC(=O)[C@@H](CC(C)C)NC(=O)[C@H](CCN)NC1=O)[C@@H](C)O [colistin] 1.11
CC12CC3CC(C)(C1)CC(N)(C3)C2 [Memantine hydrochloride] + CCC(C)CCCC(=O)N[C@@H](CCN)C(=O)N[C@H](C(=O)N[C@@H](CCN)C(=O)N[C@H]1CCNC(=O)[C@H]([C@@H](C)O)NC(=O)[C@H](CCN)NC(=O)[C@H](CCN)NC(=O)[C@H](CC(C)C)NC(=O)[C@@H](CC(C)C)NC(=O)[C@H](CCN)NC1=O)[C@@H](C)O [colistin] 0.939
